Values from PubChem BioAssay AID1224830 (NIAID, 2016).
Aim: 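Regulators of TLR4 signalling towards TNF-alpha in macrophage-like cells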 (primary screen). Cells: human THP-1 monocytic leukaemia cells, TNF dual-luciferase reporter clone, PMA-differentiated to macrophage-like cells. Reagent: siRNA pool against human genes, 50 nM. Time to read-out: LPS for 4 h, given about 3 days after siRNA transfection. Conditions: bacterial LPS (TLR4 ligand), 10 ng/ml. Measurement: 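TNF firefly reporter luminescence divided by renilla, normalised to the plate median, then turned into a robust z-score for each replicate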. Reading the numbers: TNF reporter robust z-score: higher = stronger TNF reporter response to LPS. Call rule: 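a well is active when its z-score exceeds 2.8 or falls below -1.5; control wells carry no call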.
Shown is one part, drawn at random, of about 18,000 reagents tested. Of all reagents, about 2,900 (16%) are marked active. 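Calls are made per well; low scores hint the gene aids the LPS response, high scores that it dampens it.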 Repeated entries: four replicate wells of each siRNA pool. Reagent sequences are not shown.

| gene symbol | TNF reporter robust z-score | activity call |
| --- | --- | --- |
| HNRNPD (heterogeneous nuclear ribonucleoprotein D) | 0.52 | inactive |
| HNRNPD (heterogeneous nuclear ribonucleoprotein D) | 0.68 | inactive |
| HNRNPD (heterogeneous nuclear ribonucleoprotein D) | -0.28 | inactive |
| HNRNPD (heterogeneous nuclear ribonucleoprotein D) | 0.34 | inactive |
| COPS8 (COP9 signalosome subunit 8) | -0.5 | inactive |
| COPS8 (COP9 signalosome subunit 8) | 0.72 | inactive |
| COPS8 (COP9 signalosome subunit 8) | 0.41 | inactive |
| COPS8 (COP9 signalosome subunit 8) | 0.24 | inactive |
| SLC71A1 | -0.9 | inactive |
| SLC71A1 | -0.33 | inactive |
| SLC71A1 | -0.52 | inactive |
| SLC71A1 | 0.16 | inactive |
| SERPINB12 (serpin family B member 12) | -0.48 | inactive |
| SERPINB12 (serpin family B member 12) | -0.52 | inactive |
| SERPINB12 (serpin family B member 12) | -0.25 | inactive |
| SERPINB12 (serpin family B member 12) | -1.39 | inactive |
| SLC6A15 | 0.26 | inactive |
| SLC6A15 | 0.07 | inactive |
| SLC6A15 | -0.39 | inactive |
| SLC6A15 | -0.9 | inactive |
| ZBTB17 (zinc finger and BTB domain containing 17) | 0.74 | inactive |
| ZBTB17 (zinc finger and BTB domain containing 17) | -0.56 | inactive |
| ZBTB17 (zinc finger and BTB domain containing 17) | -0.94 | inactive |
| SPPL2A (signal peptide peptidase like 2A) | 2.57 | inactive |
| SPPL2A (signal peptide peptidase like 2A) | 0.69 | inactive |
| SPPL2A (signal peptide peptidase like 2A) | -0.36 | inactive |
| SPPL2A (signal peptide peptidase like 2A) | -0.18 | inactive |
| FBXL17 (F-box and leucine rich repeat protein 17) | 0.39 | inactive |
| FBXL17 (F-box and leucine rich repeat protein 17) | 1.47 | inactive |
| FBXL17 (F-box and leucine rich repeat protein 17) | -2.42 | active |
| FBXL17 (F-box and leucine rich repeat protein 17) | 0.63 | inactive |
| ARMCX5 (armadillo repeat containing X-linked 5) | -0.74 | inactive |
| ARMCX5 (armadillo repeat containing X-linked 5) | -0.09 | inactive |
| ARMCX5 (armadillo repeat containing X-linked 5) | 0.14 | inactive |
| ARMCX5 (armadillo repeat containing X-linked 5) | -1 | inactive |
| DDX17 (DEAD-box helicase 17) | -0.92 | inactive |
| DDX17 (DEAD-box helicase 17) | 2.36 | inactive |
| DDX17 (DEAD-box helicase 17) | -0.17 | inactive |
| DDX17 (DEAD-box helicase 17) | 0.01 | inactive |
| PHOSPHO2 (phosphatase, orphan 2) | 2.25 | inactive |
| PHOSPHO2 (phosphatase, orphan 2) | 0.98 | inactive |
| PHOSPHO2 (phosphatase, orphan 2) | 1.4 | inactive |
| PHOSPHO2 (phosphatase, orphan 2) | -0.65 | inactive |
| UBR7 (ubiquitin protein ligase E3 component n-recognin 7) | 0.53 | inactive |
| UBR7 (ubiquitin protein ligase E3 component n-recognin 7) | 0.42 | inactive |
| UBR7 (ubiquitin protein ligase E3 component n-recognin 7) | 0.69 | inactive |
| UBR7 (ubiquitin protein ligase E3 component n-recognin 7) | 0.67 | inactive |

3 consecutive reagents from above, for reference:
| gene symbol | TNF reporter robust z-score | activity call |
| --- | --- | --- |
| PHOSPHO2 (phosphatase, orphan 2) | 0.98 | inactive |
| PHOSPHO2 (phosphatase, orphan 2) | 1.4 | inactive |
| PHOSPHO2 (phosphatase, orphan 2) | -0.65 | inactive |
